Measured values: US12077557B2, “Puromycin-based probes and methods of use thereof” (The Regents of the University of California, priority 2018, dated 2024)
Some results were stated once for a whole list of compounds, not compound by compound. At least one structure is not confirmed: it was looked up by name or label, or the drawing left a doubt.

Test: Stability of probes in phosphate buffer-methanol mixture by LC-MS
Type: physicochemical
Details: 0.3 mM probe, phosphate buffer (20 mM, pH 7.4)-methanol (2:1, v/v), 3 vol % DMSO
Method: MilliQ water was used in all experiments unless otherwise stated. Reaction kinetics of the probes with species of interest and other substrates were investigated by LC-MS (Agilent Technology 6130, Quadrupole LC/MS) coupled with photodiode array for detection (X=275 nm). Confocal microscopy images were recorded on a Zeiss laser scanning microscope 710 with a 40× water-immersion objective lens using Zen 2009 software (Carl Zeiss).
Peroxymycin-1 and Ctrl-Peroxymycin-1 (0.3 mM), respectively, were dissolved in phosphate buffer (20 mM, pH 7.4)-methanol solution mixture (2:1, v/v) with 3 vol % DMSO and allowed to stand at room temperature. At predetermined time intervals, an aliquot of the solution mixture was taken for LC-MS analysis. Separation was achieved by gradient elution from 5-100% MeOH in water (constant 0.1 vol % formic acid) over 8 min, isocratic with 100% MeOH from 8 to 12 min and returned to initial conditions and equilibrated for 3 minutes. The LC chromatograms were recorded by monitoring absorption at 275 nm.

SMILES | time stable in aqueous buffer solution
COc1ccc(CC(NC(=O)OCc2ccc(N=[N+]=[N-])cc2)C(=O)NC2C(CO)OC(n3cnc4c(N(C)C)ncnc43)C2O)cc1 (centres unmarked) [H2S-Puro-1] | at least 6 h
COc1ccc(CC(NC(=O)OCCSSCCOC(C)=O)C(=O)NC2C(CO)OC(n3cnc4c(N(C)C)ncnc43)C2O)cc1 (centres unmarked) [GSH-Puro-1] | at least 6 h
